In this assay the target is Methyltransferase-like 3 (Mettl3) (UniProt Q86U44). Description: co-IP; 293 T cells transfected with plasmids, lysed in cell lysis buffer, pre-cleared, immunoprecipitated with anti-FLAG or anti-Ha magnetic beads; IP product analysed by WB.

Chains of the proteins cited; added tags and fusions are not shown.
UniProt Q86U44: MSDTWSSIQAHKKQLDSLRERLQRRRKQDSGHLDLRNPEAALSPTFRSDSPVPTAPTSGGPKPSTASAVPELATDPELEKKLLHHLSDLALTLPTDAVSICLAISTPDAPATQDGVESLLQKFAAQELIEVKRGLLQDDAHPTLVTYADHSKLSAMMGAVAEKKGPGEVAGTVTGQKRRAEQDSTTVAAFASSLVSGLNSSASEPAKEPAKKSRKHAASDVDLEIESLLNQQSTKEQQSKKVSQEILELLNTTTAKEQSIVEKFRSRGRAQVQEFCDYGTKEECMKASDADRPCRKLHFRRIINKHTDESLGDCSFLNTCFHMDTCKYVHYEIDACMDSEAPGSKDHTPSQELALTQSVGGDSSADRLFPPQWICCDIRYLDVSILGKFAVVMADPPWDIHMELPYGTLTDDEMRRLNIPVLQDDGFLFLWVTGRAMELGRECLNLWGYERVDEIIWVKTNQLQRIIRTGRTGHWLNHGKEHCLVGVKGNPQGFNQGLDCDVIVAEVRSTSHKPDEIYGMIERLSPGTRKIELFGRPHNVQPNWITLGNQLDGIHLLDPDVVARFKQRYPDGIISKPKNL
UniProt Q14781: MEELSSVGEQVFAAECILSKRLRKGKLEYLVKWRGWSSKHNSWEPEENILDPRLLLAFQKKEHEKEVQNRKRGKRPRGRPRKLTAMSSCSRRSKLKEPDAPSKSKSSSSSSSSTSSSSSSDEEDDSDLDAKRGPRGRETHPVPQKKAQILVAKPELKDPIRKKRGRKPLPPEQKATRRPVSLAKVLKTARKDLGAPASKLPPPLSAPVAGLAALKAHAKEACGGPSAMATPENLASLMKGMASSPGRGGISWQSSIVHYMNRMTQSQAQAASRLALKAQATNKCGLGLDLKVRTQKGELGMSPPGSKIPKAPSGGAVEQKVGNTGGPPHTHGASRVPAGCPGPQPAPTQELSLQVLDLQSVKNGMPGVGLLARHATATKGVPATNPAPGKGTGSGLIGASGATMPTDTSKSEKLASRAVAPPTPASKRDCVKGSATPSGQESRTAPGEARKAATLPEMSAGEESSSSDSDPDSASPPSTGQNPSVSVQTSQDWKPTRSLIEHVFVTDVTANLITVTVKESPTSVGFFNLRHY

These are yes or no findings as the source states them, for the method shown. Binding seen in cells or lysates may run through a third protein.

In publication PMC10937286 one finds binding data, which are given here for one substance.

For the substance CBX2 (from UniProt Q14781 1-532), the binding result is recorded as “no binding”.
